Measured values as given in patent US20250025478A1.
These are yes or no findings as the source states them, for the method shown. Binding seen in cells or lysates may run through a third protein. Some binding calls cover weakened binding; strength is not graded here. Sequences can lack the tags named with a protein.

Protein sequences, listed by entry. Tags and fused reporters are not part of them. Lines headed by an entry give the natural chain unless they say otherwise; changes in a name come on top.
UniProt Q63HN8: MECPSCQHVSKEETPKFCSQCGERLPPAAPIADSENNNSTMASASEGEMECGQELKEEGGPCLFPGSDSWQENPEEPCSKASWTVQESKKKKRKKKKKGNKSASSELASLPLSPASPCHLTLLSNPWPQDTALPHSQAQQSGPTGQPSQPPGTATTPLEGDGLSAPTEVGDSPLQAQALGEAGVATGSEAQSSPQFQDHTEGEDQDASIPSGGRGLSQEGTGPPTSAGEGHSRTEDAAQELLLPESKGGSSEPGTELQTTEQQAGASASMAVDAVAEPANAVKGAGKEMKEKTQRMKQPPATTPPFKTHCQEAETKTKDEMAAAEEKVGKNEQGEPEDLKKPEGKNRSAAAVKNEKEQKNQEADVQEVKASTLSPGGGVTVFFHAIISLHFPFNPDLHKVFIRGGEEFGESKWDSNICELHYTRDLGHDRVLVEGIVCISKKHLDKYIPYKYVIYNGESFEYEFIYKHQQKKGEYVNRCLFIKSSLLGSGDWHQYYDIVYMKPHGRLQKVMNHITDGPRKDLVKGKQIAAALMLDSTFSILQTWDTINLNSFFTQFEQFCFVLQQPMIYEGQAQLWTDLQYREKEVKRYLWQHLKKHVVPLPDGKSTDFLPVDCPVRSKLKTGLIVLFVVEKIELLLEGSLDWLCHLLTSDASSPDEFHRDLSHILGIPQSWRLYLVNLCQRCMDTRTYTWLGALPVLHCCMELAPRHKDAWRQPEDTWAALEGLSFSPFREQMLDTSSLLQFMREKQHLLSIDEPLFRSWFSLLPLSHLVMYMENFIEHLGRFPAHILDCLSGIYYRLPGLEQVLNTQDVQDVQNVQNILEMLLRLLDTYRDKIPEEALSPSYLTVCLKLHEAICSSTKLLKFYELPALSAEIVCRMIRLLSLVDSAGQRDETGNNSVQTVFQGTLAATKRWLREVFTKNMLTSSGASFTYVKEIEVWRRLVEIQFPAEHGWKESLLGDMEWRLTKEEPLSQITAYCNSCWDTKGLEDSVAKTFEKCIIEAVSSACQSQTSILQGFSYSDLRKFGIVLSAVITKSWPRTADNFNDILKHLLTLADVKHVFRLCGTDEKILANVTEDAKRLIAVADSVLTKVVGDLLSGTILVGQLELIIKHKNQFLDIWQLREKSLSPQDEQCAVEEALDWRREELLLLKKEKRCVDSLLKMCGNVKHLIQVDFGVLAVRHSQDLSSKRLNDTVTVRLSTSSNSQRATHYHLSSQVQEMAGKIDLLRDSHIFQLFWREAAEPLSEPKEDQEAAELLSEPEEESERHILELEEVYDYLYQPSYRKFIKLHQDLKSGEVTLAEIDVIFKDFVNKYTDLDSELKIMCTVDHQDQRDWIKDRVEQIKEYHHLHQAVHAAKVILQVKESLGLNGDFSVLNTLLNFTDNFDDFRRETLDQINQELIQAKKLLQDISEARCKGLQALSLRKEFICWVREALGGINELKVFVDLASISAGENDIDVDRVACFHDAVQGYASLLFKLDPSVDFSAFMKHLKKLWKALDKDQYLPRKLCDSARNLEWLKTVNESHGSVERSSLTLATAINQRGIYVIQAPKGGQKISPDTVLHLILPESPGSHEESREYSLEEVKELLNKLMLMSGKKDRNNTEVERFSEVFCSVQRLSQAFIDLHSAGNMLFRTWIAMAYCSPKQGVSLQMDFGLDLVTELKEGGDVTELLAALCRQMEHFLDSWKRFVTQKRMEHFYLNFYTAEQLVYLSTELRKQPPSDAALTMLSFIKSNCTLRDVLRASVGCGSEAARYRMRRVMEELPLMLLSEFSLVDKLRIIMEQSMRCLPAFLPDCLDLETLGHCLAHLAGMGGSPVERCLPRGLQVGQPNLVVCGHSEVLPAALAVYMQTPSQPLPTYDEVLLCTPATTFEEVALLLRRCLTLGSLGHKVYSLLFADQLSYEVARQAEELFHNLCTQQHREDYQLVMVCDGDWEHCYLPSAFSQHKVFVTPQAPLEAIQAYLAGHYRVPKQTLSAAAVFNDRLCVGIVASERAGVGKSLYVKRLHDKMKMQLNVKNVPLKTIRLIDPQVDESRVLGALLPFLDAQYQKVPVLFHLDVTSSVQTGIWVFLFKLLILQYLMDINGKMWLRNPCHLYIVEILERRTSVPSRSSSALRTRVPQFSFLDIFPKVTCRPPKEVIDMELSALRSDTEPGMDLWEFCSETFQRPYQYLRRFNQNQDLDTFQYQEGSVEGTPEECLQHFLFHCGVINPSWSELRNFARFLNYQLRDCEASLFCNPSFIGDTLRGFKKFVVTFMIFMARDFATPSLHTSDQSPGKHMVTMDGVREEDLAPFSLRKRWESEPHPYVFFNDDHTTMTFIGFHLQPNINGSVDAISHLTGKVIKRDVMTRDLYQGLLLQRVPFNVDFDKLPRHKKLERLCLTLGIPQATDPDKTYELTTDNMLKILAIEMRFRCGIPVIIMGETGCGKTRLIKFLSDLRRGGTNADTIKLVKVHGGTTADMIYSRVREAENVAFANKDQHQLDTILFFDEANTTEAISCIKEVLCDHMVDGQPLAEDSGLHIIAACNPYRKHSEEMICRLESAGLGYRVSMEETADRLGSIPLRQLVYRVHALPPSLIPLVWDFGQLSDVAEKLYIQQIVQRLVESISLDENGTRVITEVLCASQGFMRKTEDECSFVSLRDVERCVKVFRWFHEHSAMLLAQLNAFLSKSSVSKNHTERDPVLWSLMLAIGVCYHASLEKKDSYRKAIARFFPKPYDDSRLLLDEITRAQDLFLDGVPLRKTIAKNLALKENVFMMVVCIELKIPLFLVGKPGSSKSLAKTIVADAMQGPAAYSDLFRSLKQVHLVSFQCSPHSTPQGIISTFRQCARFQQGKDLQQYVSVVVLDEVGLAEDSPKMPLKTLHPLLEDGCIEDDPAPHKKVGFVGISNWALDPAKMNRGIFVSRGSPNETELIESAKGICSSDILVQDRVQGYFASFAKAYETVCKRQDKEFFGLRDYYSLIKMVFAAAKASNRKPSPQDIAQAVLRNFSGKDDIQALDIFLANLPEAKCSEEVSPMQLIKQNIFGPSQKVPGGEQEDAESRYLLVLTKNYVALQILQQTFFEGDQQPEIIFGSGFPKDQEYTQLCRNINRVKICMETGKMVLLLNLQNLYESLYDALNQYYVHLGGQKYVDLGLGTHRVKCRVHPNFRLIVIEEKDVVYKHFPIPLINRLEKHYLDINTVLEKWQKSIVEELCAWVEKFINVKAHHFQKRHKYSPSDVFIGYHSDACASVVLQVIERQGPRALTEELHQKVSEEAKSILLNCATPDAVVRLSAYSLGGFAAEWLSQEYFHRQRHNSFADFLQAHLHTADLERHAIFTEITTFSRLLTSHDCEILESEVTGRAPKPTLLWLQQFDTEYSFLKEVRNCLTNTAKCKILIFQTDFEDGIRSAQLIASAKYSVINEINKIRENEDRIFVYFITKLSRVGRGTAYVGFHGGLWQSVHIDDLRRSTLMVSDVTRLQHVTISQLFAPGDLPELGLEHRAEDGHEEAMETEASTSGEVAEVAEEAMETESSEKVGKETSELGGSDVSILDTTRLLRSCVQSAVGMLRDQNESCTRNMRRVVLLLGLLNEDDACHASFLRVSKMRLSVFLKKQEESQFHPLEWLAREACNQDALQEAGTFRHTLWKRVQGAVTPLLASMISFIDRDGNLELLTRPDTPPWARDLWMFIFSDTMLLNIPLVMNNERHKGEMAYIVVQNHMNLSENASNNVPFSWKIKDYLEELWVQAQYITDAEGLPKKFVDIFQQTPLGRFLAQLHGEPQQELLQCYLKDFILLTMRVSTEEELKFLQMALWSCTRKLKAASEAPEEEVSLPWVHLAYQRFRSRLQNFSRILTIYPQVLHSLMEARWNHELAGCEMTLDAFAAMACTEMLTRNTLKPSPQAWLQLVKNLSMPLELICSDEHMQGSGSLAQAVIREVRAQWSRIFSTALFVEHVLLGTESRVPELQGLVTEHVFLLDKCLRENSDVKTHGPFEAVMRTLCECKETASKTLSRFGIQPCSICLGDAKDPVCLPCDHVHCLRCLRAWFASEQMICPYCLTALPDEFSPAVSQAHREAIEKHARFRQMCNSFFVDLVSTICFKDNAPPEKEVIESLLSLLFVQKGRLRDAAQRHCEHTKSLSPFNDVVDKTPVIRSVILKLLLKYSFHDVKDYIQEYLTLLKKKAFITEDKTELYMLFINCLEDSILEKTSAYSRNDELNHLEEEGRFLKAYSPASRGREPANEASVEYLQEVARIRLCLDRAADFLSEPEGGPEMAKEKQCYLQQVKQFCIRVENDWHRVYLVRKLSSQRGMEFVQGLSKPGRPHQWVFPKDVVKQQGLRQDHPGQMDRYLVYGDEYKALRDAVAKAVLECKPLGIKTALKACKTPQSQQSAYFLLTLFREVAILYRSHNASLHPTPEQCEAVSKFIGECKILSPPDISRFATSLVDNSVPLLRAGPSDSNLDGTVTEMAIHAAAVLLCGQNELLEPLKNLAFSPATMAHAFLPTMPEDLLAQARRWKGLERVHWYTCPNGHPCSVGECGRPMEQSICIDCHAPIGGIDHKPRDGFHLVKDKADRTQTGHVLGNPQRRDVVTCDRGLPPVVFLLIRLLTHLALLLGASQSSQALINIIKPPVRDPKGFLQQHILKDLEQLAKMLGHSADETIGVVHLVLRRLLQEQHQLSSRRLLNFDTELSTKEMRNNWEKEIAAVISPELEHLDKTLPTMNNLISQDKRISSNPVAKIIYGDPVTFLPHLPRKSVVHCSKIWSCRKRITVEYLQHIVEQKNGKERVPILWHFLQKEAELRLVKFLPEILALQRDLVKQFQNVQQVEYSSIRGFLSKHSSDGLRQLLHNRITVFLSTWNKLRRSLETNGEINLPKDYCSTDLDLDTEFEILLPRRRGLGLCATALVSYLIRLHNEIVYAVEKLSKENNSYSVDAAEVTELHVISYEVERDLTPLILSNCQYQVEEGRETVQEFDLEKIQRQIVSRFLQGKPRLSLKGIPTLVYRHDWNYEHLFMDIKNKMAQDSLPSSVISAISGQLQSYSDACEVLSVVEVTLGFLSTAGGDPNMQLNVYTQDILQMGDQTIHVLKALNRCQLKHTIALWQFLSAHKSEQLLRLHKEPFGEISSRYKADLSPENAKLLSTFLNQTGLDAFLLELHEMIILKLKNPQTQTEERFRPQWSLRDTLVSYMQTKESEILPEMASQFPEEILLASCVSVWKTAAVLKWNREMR

Key:
[1] = target: 3×-FLAG-RNF213 (Homo sapiens (Human)) (UniProt Q63HN8); test: anti-HA co-immunoprecipitation/immunoblot, AU565 RNF213-KO-PTPN1-KD cells (FIG. 7C)
[2] = target: 3×-FLAG-RNF213 (Homo sapiens (Human)) (UniProt Q63HN8); test: anti-HA co-immunoprecipitation/immunoblot with dasatinib or DMSO (FIG. 1E, FIG. 8B)
[3] = target: 3×-FLAG-RNF213 (Homo sapiens (Human)) (UniProt Q63HN8); test: anti-HA co-immunoprecipitation/immunoblot, BT474 RNF213-KO-PTPN1-KD cells (FIG. 1A, 1E)
[4] = target: 3×-FLAG-RNF213 (Homo sapiens (Human)) (UniProt Q63HN8); test: anti-HA co-immunoprecipitation/immunoblot with dasatinib or DMSO, AU565 RNF213-KO-PTPN1-KD cells (FIG. 8B)
[5] = target: 3×-FLAG-RNF213 (Homo sapiens (Human)) (UniProt Q63HN8); test: anti-HA co-immunoprecipitation/immunoblot, BT474 RNF213-KO-PTPN1-KD cells (FIG. 1A); similar in AU565-derived cells (FIG. 7C)

Measured: binding

B1: HA-PTP1B^D/A (hemagglutinin-tagged mouse PTP1B substrate-trapping mutant D181A) (enzyme, UniProt P35821 1-432, looked up, not shown: small tags and cut ends)
chain: MEMEKEFEEIDKAGNWAAIYQDIRHEASDFPCKVAKLPKNKNRNRYRDVSPFDHSRIKLHQEDNDYINASLIKMEEAQRSYILTQGPLPNTCGHFWEMVWEQKSRGVVMLNRIMEKGSLKCAQYWPQQEEKEMVFDDTGLKLTLISEDVKSYYTVRQLELENLTTKETREILHFHYTTWPAFGVPESPASFLNFLFKVRESGSLSLEHGPIVVHCSAGIGRSGTFCLADTCLLLMDKRKDPSSVDIKKVLLEMRRFRMGLIQTADQLRFSYLAVIEGAKFIMGDSSVQDQWKELSREDLDLPPEHVPPPPRPPKRTLEPHNGKCKELFSSHQWVSEETCGDEDSLAREEGRAQSSAMHSVSSMSPDTEVRRRMVGGGLQSAQASVPTEEELSSTEEEHKAHWPSHWKPFLVNVCMATLLATGAYLCYRVCFH
binds: [1] | [2] | [3] | [4] | [5]
